From patent US5157032A, “Mixed ligand complexes and uses thereof as binding agents and probes to DNA” (The Trustees of Columbia University In The City of New York, priority 1990, dated 1992)

Key:
CT DNA = assay: Luminescence in presence of CT DNA; assay type: binding, calf; details: CT DNA 100 μM, buffer
Experimental: While a linear relationship of the luminescence is observed for Ru(bpy)2 (dppz)^2+ in iso-propanol as a function of temperature this is not the behavior seen when the complex is bound to DNA. When the complex, Ru(bpy)2 (dppz)^2+ is bound to cal-thymus (CT) DNA (100 μM) under low salt conditions at 25 ° C. a biexponential lifetime is observed. A short component which is assigned to a surface interaction, and a long component which is assigned to an intercalated species. As is shown in Table 1, the short component remains relatively unchanged until 70 ° C. when there is an abrupt decrease in the lifetime to 45 ns at 85° C. […] Under these conditions the CT DNA melts and the observed lifetimes of the complexes are similar to those lifetimes measured with single stranded DNA. […] In fact there is an abrupt decrease in the quantum yield at the melting temperature at this salt concentration. This decrease in quantum yield may be explained thus: when the complex is bound to the double stranded form the quenching ability of H2 O is inhibited while at the melting temperature the single stranded form of DNA cannot protect the complex from quenching of H2 O and therefore the observed luminescence is not as intense.

[1] = Luminescence in solvents without DNA; assay type: physicochemical; details: for luminescence λmax: λirr 482 nm
calf thymus DNA = assay: Spectroscopic properties (absorption, emission, lifetime) on binding to calf thymus DNA; parameters: key to Emission λmax: b: Nonemissive complexes; details: for Absorption λmax bound / Emission λmax bound: bound to DNA; for Absorption Δλ / Emission Δλ: bound vs free; for Absorption λmax free / Emission λmax free / εfree / Emission Lifetime free: free complex; for Emission Lifetime free / Emission Lifetime bound, first component (1) / Emission Lifetime bound, second component (2): 20° C., air saturated; for Emission Lifetime bound, first component (1) / Emission Lifetime bound, second component (2): with DNA
Experimental: Instrumentation: NMR spectra were recorded on a Varian VXR-300MHz spectormeter. FABS were performed using a VG Analytical 7070EQ Mas Spectrometer (78), and elemental analyses were done by Galbraith Laboratories in Nashville, Tenn. UV-Visible absorbance spectal were recorded on a Varian CARY-219 absorbance spectorphotometer. Extinction coefficients for the compounds were determined versus ruthenium concentrations obtained by atomic absorption spectroscopy with known ruthenium standards. [Ru(bpy)3 ]Cl2 solutions were also employed for these determinations as an internal standard. A varian AA-875 atomic absorption spectrophotometer was used for these determinations.
Emission spectra were measured on a Perkin-Elmer LS-5 fluorescence spectrometer. The samples were excited at their corresponding isosbestic points. All the measurements were made at 20° C. in a thermostatted cuvette holder with 3 nm entrance slit and 10 nm exit slit. Ruthenium solutions employed were 7 μM in concentration and claf thymus DNA was added to a ration of 40:1 nucleotide/metal; ruthenuim-DNA soltuions were allowed to incubate for 15 minutes before enhanced spectra were recorded. The emission enhancement factors were measured by comparing the intensitites at the emission spectral mixima in the absence ad presence of DNA, under similar conditions.
The limunescence lifetime measurements were done on a PRA SPC (single photon countining) spectometer with some minor modifications. The samples were excited with a nitrogen filled tnynratron gated flash lamp and the data were collected using a Tracor Northern 1710 multichannel analyser. The data were then transferred to a PDP-11/03 computer and deconvoluted with PRA software. […] concentrated solution of DNA (5mM DNA-phosphate) in buffer was added to a solution of the metal complex (4 μM) in buffer and allowed to equilibrate. Lifetimes of the samples were measured 0.5 hr after the metal complexes were mixed with DNA. All measurements were made at 20° C. and under air saturated conditions.
Furthermore, for all the complexes, this electronic transition is perturbed on binding to DNA.

**Q.** Which “luminescent lifetime τ, long component” value (CT DNA; 25 °C) does the source give for `[Ru+2].c1ccc(-c2ccccn2)nc1.c1ccc(-c2ccccn2)nc1.c1ccc2nc3c4cccnc4c4ncccc4c3nc2c1` [Ru(bpy)2 (dppz)^2+] here?
**A.** 259 ns

**Q.** What about the “luminescent lifetime τ, short component” value (CT DNA; 25 °C) of the same compound?
**A.** 75 ns

**Q.** What about the “luminescent lifetime τ, long component” value (CT DNA; 35 °C) of the same compound?
**A.** 232 ns

**Q.** What about the “luminescent lifetime τ, short component” value (CT DNA; 35 °C) of the same compound?
**A.** 73 ns

**Q.** What about the “luminescent lifetime τ, long component” value (CT DNA; 45 °C) of the same compound?
**A.** 232 ns

**Q.** And the “luminescent lifetime τ, short component” value (CT DNA; 45 °C)?
**A.** 73 ns

**Q.** And the “luminescent lifetime τ, long component” value (CT DNA; 55 °C)?
**A.** 204 ns

**Q.** What about the “luminescent lifetime τ, short component” value (CT DNA; 55 °C) of the same compound?
**A.** 68 ns

**Q.** What about the “luminescent lifetime τ, long component” value (CT DNA; 65 °C) of the same compound?
**A.** 189 ns

**Q.** And the “luminescent lifetime τ, short component” value (CT DNA; 65 °C)?
**A.** 68 ns

**Q.** What about the “luminescent lifetime τ, long component” value (CT DNA; 75 °C) of the same compound?
**A.** 144 ns

**Q.** And the “luminescent lifetime τ, short component” value (CT DNA; 75 °C)?
**A.** 54 ns

**Q.** What about the “luminescent lifetime τ, long component” value (CT DNA; 85 °C) of the same compound?
**A.** 118 ns

**Q.** And the “luminescent lifetime τ, short component” value (CT DNA; 85 °C)?
**A.** 45 ns

**Q.** And the “luminescent lifetime τ” value ([1]; CH3 OH, 25 °C)?
**A.** 30 ns

**Q.** What about the “luminescence λmax” value ([1]; acetonitrile) of the same compound?
**A.** 615 nm

**Q.** And the “luminescence λmax” value ([1]; ethanol)?
**A.** 610 nm

**Q.** And the “luminescent lifetime τ” value ([1]; iso-propanol, 25 °C)?
**A.** 209 ns and 210 ns

**Q.** And the “luminescent lifetime τ” value ([1]; iso-propanol, 35 °C)?
**A.** 192 ns

**Q.** And the “luminescent lifetime τ” value ([1]; iso-propanol, 45 °C)?
**A.** 174 ns

**Q.** What about the “luminescent lifetime τ” value ([1]; iso-propanol, 55 °C) of the same compound?
**A.** 154 ns

**Q.** What about the “luminescent lifetime τ” value ([1]; iso-propanol, 65 °C) of the same compound?
**A.** 129 ns

**Q.** What about the “luminescent lifetime τ” value ([1]; iso-propanol, 75 °C) of the same compound?
**A.** 102 ns

**Q.** What about the “intercept of lifetime vs temperature” value ([1]; isopropanol) of the same compound?
**A.** 267 ns

**Q.** And the “slope of lifetime decrease” value ([1]; isopropanol)?
**A.** 2.1 nsdeg

**Q.** And the “decrease in the life with temperature” value ([1]; isopropanol, temperature increased)?
**A.** 102 ns

**Q.** With `[Ru+2].c1ccc(-c2ccccn2)nc1.c1ccc(-c2ccccn2)nc1.c1cnc2c(c1)ccc1cccnc12` [Ru(bpy)2 (phen)^2+] as the compound, how does the “Absorption λmax bound” value (calf thymus DNA) read?
**A.** 452 nm

**Q.** And the “Emission λmax bound” value (calf thymus DNA)?
**A.** 602 nm

**Q.** And the “Absorption Δλ” value (calf thymus DNA)?
**A.** 0 nm

**Q.** What about the “Emission Δλ” value (calf thymus DNA) of the same compound?
**A.** -9 nm

**Q.** And the “Absorption λmax free” value (calf thymus DNA)?
**A.** 452 nm

**Q.** And the “Emission λmax free” value (calf thymus DNA)?
**A.** 611 nm

**Q.** And the εfree (calf thymus DNA)?
**A.** 16,000 M-1 cm-1

**Q.** What about the “Emission Lifetime free” value (calf thymus DNA) of the same compound?
**A.** 450 nanoseconds

**Q.** And the “Emission Lifetime bound, first component (1)” value (calf thymus DNA)?
**A.** 430 ± 30 nanoseconds

**Q.** What about the “Emission Lifetime bound, second component (2)” value (calf thymus DNA) of the same compound?
**A.** 2100 ± 300 nanoseconds

**Q.** With `N=C1C(=N)c2ccccc2-c2ccccc21.[Ru+2].c1ccc(-c2ccccn2)nc1.c1ccc(-c2ccccn2)nc1` [Ru(bpy)2 (phi)^2+] as the compound, how does the “Emission λmax” value (calf thymus DNA) read?
**A.** b

**Q.** And the “Absorption λmax bound” value (calf thymus DNA)?
**A.** 548 nm

**Q.** And the “Absorption Δλ” value (calf thymus DNA)?
**A.** 13 nm

**Q.** What about the “Absorption λmax free” value (calf thymus DNA) of the same compound?
**A.** 535 nm

**Q.** And the εfree (calf thymus DNA)?
**A.** 48,000 M-1 cm-1

**Q.** What does the source list for `[Ru+2].c1ccc(-c2ccccn2)nc1.c1ccc(-c2ccccn2)nc1.c1ccc(-c2ccccn2)nc1` [Ru(bpy)3^2+, reference compound]?
**A.** Absorption λmax bound (calf thymus DNA): 450 nm; Emission λmax bound (calf thymus DNA): 618 nm; Absorption Δλ (calf thymus DNA): 0 nm; Emission Δλ (calf thymus DNA): 3 nm; Absorption λmax free (calf thymus DNA): 450 nm; Emission λmax free (calf thymus DNA): 615 nm; εfree (calf thymus DNA): 14,600 M-1 cm-1; Emission Lifetime free (calf thymus DNA): 420 nanoseconds

**Q.** With `[Ru+2].c1ccc(-c2ccccn2)nc1.c1cnc2c(c1)ccc1cccnc12.c1cnc2c(c1)ccc1cccnc12` [Ru(phen)2 (bpy)^2+] as the compound, how does the “Absorption λmax bound” value (calf thymus DNA) read?
**A.** 448 nm

**Q.** And the “Emission λmax bound” value (calf thymus DNA)?
**A.** 604 nm

**Q.** What about the “Absorption Δλ” value (calf thymus DNA) of the same compound?
**A.** 2 nm

**Q.** What about the “Emission Δλ” value (calf thymus DNA) of the same compound?
**A.** -4 nm

**Q.** And the “Absorption λmax free” value (calf thymus DNA)?
**A.** 446 nm

**Q.** And the “Emission λmax free” value (calf thymus DNA)?
**A.** 608 nm

**Q.** And the εfree (calf thymus DNA)?
**A.** 19,200 M-1 cm-1

**Q.** What about the “Emission Lifetime free” value (calf thymus DNA) of the same compound?
**A.** 555 nanoseconds

**Q.** And the “Emission Lifetime bound, first component (1)” value (calf thymus DNA)?
**A.** 530 ± 30 nanoseconds

**Q.** What about the “Emission Lifetime bound, second component (2)” value (calf thymus DNA) of the same compound?
**A.** 2100 ± 260 nanoseconds

“And” between values parts separate entries of the source, which are not always exact repeats. Equal values may be shown once.
